PubChem BioAssay AID504772, Drosophila RNAi Screening Center, 2011

Purpose: 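Fly genes whose silencing changes Wnt reporter output triggered by active LRP6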 (primary screen)
Cells: Drosophila clone 8 cells
Reagent: long dsRNA against Drosophila genes
Timing: four days
Conditions: pathway switched on by co-transfected constitutively active LRP6 lacking its extracellular part (DeltaNLRP6)
Measured: 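Light from a beta-catenin-dependent firefly luciferase reporter (dTF12) relative to co-transfected Renilla luciferase, given as up or down, after four days with Wnt signalling driven by truncated active LRP6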
Call rule: 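Picked genes show at least a doubling of Wnt reporter light upon knockdown and have a known human equivalent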
Meaning of the calls: active = picked as conserved enhancer hit; inactive = not picked
Only reagents picked out of a larger screen are listed. 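Only primary screen hits listed, as up or down without numbers; fold changes behind calls not deposited; all reporter-lowering hits marked not picked.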 Reagents against one gene are numbered here. A plus sign joins genes that one reagent is predicted to hit. Not given: the amount of reagent, the dose of the treatment.

| gene | dsRNA no. | reporter change after knockdown | activity call |
| --- | --- | --- | --- |
| Hmgcr (HMG Coenzyme A reductase) | 1 | reporter signal went up | inactive |
| mdu (meduse) | 1 | reporter signal went down | inactive |
| Pvf3 (PDGF- and VEGF-related factor 3) | 1 | reporter signal went down | inactive |
| Tbp (TATA binding protein) | 1 | reporter signal went down | inactive |
| lola (longitudinals lacking) | 1 | reporter signal went down | inactive |
| CG31917 + Tfb5 | 1 | reporter signal went up | inactive |
| CG31917 + Tfb5 | 2 | reporter signal went up | inactive |
| NC2alpha (Negative Cofactor 2alpha) | 1 | reporter signal went up | inactive |
| Vsx1 (Visual system homeobox 1) | 1 | reporter signal went down | inactive |
| His2Av (Histone H2A variant) | 1 | reporter signal went up | inactive |
| CG13675 | 1 | reporter signal went down | inactive |
| CG10139 | 1 | reporter signal went up | inactive |
| CG5386 | 1 | reporter signal went up | inactive |
| Nipped-A | 1 | reporter signal went up | inactive |
| Nipped-A | 2 | reporter signal went up | inactive |
| Nipped-A | 3 | reporter signal went up | inactive |
| CG3078 | 1 | reporter signal went down | inactive |
| MED26 (Mediator complex subunit 26) | 1 | reporter signal went up | inactive |
| bun (bunched) | 1 | reporter signal went up | inactive |
| puf (puffyeye) | 1 | reporter signal went up | inactive |
| stwl (stonewall) | 1 | reporter signal went down | inactive |
| Clp (Clipper) | 1 | reporter signal went down | inactive |
| Arms (Ankyrin repeat-rich membrane spanning) | 1 | reporter signal went down | inactive |

Records listed so far whose gene name starts with C or c:
| gene | dsRNA no. | reporter change after knockdown | activity call |
| --- | --- | --- | --- |
| CG31917 + Tfb5 | 1 | reporter signal went up | inactive |
| CG31917 + Tfb5 | 2 | reporter signal went up | inactive |
| CG13675 | 1 | reporter signal went down | inactive |
| CG10139 | 1 | reporter signal went up | inactive |
| CG5386 | 1 | reporter signal went up | inactive |
| CG3078 | 1 | reporter signal went down | inactive |
| Clp (Clipper) | 1 | reporter signal went down | inactive |

Additional records:
| gene | dsRNA no. | reporter change after knockdown | activity call |
| --- | --- | --- | --- |
| CG34159 | 1 | reporter signal went down | inactive |
| Bicra | 1 | reporter signal went up | inactive |
| Klp31E (Kinesin-like protein at 31E) | 1 | reporter signal went up | inactive |
| CG32547 | 1 | reporter signal went down | inactive |
| Vps4 (Vacuolar protein sorting 4) | 1 | reporter signal went up | inactive |
| Pp2B-14D (Protein phosphatase 2B at 14D) | 1 | reporter signal went down | inactive |
| Rab26 | 1 | reporter signal went down | inactive |
| Rip11 (Rab11 interacting protein) | 1 | reporter signal went down | inactive |
| TwdlK (TweedleK) | 1 | reporter signal went down | inactive |
| MED19 (Mediator complex subunit 19) | 1 | reporter signal went down | inactive |
| CG31058 (retired record) | 1 | reporter signal went down | inactive |
| CG32712 | 1 | reporter signal went up | inactive |
| CycT (Cyclin T) | 1 | reporter signal went down | inactive |
| TfIIA-L (Transcription factor IIA L) | 1 | reporter signal went down | inactive |
| orb (oo18 RNA-binding protein) | 1 | reporter signal went down | inactive |
| CG5402 | 1 | reporter signal went down | inactive |
| CG6834 | 1 | reporter signal went down | inactive |
| row (relative of woc) | 1 | reporter signal went up | inactive |
| CkIIbeta (Casein kinase II beta subunit) | 1 | reporter signal went down | inactive |
| Prp3 (Precursor RNA processing 3) | 1 | reporter signal went up | inactive |
| CG32428 | 1 | reporter signal went down | inactive |
| Antp (Antennapedia) | 1 | reporter signal went up | inactive |
| mura (murashka) | 1 | reporter signal went down | inactive |
| mle (maleless) | 1 | reporter signal went up | inactive |
| CG14454 | 1 | reporter signal went up | inactive |
| gpp (grappa) | 1 | reporter signal went down | inactive |
| ash1 (absent, small, or homeotic discs 1) | 1 | reporter signal went up | active |
| CG13739 | 1 | reporter signal went down | inactive |
| Rga (Regena) | 1 | reporter signal went up | inactive |
| Hibch (3-hydroxyisobutyryl-CoA hydrolase) | 1 | reporter signal went up | inactive |
| mts (microtubule star) | 1 | reporter signal went up | inactive |
| B52 | 1 | reporter signal went down | inactive |
| CG13711 | 1 | reporter signal went down | inactive |
| E2f1 (E2F transcription factor 1) | 1 | reporter signal went down | inactive |
| trx (trithorax) | 1 | reporter signal went up | inactive |
| CG11983 | 1 | reporter signal went down | inactive |
| AGO2 (Argonaute 2) | 1 | reporter signal went up | inactive |
| pdm2 (POU domain protein 2) | 1 | reporter signal went down | inactive |
| Cdk1 (Cyclin-dependent kinase 1) | 1 | reporter signal went down | inactive |
| MED15 (Mediator complex subunit 15) | 1 | reporter signal went down | inactive |
| CG8435 | 1 | reporter signal went up | active |
| htk (hat-trick) | 1 | reporter signal went up | inactive |
| Myc | 1 | reporter signal went down | inactive |
| wcy (wacky) | 1 | reporter signal went up | inactive |
